Results taken from PMC6295167.
No constants are given. Whether binding was seen depends on the method and setting. Binding seen in cells or lysates may run through a third protein. Some results given as binding are weak or reduced against the parent protein; the word gives no strength. Where a sequence is shown, tags or fusion partners need not be part of it.

Amino acid sequences for entries named in this document (tags omitted).
UniProt P32600: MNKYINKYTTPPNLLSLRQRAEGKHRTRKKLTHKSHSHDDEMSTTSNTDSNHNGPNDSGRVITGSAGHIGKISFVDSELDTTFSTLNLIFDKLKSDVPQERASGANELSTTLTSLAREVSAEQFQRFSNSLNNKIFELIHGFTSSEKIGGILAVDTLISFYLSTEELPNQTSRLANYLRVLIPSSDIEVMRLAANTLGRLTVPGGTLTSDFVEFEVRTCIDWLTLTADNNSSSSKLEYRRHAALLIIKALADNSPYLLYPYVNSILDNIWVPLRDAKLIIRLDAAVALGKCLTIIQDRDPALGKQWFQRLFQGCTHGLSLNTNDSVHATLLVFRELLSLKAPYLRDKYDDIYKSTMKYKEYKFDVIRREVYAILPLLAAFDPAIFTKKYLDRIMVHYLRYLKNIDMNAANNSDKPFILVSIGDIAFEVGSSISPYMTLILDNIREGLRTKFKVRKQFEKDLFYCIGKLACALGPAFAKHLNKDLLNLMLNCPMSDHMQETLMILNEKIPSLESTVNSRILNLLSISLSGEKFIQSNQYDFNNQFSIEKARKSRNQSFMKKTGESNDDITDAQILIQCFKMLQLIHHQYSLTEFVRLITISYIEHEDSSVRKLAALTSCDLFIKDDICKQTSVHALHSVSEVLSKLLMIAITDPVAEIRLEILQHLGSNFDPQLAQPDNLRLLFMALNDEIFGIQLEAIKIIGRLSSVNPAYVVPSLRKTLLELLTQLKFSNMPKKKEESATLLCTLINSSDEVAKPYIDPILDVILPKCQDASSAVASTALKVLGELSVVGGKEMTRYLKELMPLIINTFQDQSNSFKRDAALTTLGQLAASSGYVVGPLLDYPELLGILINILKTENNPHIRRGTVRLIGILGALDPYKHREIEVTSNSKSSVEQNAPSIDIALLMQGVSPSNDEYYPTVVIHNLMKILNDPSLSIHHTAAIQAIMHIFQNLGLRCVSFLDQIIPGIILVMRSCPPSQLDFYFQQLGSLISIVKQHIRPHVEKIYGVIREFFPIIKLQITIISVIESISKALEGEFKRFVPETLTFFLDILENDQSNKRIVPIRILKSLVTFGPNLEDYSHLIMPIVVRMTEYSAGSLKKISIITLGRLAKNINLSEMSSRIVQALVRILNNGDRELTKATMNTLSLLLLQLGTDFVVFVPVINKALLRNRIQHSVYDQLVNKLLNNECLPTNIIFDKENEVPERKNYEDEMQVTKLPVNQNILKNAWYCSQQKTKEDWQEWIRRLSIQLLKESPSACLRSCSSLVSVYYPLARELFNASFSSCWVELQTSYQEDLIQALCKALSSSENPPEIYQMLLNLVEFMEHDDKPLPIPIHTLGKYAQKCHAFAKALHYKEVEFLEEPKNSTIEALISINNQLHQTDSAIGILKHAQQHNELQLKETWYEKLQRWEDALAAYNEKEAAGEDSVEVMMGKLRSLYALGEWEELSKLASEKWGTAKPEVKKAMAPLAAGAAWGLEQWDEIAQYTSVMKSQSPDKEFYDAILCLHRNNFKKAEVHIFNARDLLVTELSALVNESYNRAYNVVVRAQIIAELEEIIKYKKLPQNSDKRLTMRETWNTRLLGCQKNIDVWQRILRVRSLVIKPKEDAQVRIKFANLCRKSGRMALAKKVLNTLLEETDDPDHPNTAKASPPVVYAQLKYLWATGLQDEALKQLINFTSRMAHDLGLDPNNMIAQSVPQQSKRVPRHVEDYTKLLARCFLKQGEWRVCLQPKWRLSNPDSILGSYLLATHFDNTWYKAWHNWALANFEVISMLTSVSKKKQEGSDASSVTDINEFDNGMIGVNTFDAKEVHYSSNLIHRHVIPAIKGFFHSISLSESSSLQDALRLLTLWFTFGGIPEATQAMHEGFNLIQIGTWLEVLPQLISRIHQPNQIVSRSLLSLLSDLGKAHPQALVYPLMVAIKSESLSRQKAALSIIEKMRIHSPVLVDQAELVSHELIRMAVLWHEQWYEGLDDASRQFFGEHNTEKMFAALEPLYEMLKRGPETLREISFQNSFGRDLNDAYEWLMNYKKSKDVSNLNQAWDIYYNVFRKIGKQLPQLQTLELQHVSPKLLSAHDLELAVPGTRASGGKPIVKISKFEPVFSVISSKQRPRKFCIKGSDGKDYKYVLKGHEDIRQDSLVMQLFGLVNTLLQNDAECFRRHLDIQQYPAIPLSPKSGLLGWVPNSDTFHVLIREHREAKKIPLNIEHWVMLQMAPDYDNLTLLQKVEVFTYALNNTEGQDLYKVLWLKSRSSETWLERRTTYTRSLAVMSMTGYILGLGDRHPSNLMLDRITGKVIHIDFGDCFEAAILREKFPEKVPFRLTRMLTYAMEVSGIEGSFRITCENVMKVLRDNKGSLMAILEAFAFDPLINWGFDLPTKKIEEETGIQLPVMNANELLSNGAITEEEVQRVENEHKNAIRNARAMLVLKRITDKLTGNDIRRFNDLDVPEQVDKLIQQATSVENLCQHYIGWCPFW

T1: Avo3-3xFlag (S. cerevisiae) (UniProt P40061)
T1 sequence: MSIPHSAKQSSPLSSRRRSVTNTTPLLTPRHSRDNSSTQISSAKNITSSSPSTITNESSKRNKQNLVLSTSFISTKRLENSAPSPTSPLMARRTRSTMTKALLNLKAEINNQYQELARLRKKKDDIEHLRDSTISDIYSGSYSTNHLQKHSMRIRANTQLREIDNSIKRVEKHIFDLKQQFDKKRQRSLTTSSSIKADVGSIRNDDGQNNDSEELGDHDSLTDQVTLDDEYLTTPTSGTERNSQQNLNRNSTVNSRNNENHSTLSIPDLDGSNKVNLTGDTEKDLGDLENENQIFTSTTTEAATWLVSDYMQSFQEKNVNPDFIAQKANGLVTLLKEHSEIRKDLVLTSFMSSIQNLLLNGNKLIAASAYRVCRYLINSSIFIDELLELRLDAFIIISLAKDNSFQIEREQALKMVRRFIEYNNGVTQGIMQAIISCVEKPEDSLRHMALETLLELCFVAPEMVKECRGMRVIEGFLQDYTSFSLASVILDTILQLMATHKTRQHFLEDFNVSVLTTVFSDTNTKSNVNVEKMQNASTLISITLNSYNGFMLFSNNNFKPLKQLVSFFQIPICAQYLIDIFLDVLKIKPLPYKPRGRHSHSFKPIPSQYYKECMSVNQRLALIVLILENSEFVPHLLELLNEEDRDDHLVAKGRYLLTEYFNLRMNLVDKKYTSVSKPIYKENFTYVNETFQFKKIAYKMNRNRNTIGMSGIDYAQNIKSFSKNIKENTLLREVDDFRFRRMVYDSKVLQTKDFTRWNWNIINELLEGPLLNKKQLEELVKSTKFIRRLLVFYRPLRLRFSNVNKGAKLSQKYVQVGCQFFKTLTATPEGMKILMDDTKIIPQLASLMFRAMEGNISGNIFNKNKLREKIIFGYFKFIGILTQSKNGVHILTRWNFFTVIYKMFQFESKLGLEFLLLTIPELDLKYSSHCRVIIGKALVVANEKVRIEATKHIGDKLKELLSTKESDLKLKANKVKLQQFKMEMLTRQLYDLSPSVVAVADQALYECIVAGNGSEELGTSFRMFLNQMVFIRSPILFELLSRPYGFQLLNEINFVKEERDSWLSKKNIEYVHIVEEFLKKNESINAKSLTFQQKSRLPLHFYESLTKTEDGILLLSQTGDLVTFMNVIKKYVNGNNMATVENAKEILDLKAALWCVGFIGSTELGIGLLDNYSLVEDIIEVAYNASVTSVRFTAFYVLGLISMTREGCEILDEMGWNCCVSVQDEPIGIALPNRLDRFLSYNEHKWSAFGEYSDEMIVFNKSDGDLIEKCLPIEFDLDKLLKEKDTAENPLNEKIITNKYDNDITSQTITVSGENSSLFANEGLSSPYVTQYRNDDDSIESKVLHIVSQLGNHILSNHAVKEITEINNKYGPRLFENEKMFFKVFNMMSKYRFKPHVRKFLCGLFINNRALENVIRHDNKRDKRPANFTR


Target: T1, Avo3-3xFlag (S. cerevisiae)
Experiment: co-IP; yeast lysates (glass beads, TNEG buffer with Tris pH 7.6, NaCl, glycerol, Tergitol, EDTA) immunoabsorbed to mouse anti-Flag affinity gel through Avo3-3xFlag, washed four times with 1x TNEG, immunoblot; Avo2 quantified as the Avo2 to Tor2 ratio, three independent experiments

| Molecule | binding |
| --- | --- |
| Tor2-mNG-3xHA (from UniProt P32600 1-2474) | binds |
| Avo2-mKate (protein, UniProt Q04749 1-426) MLKEPSVRLREAIIEGNLLIVKRLLRRNPDLLTNIDSENGWSSLHYASYHGRYLICVYLIQLGHDKHELIKTFKGNTCVHLALMKGHEQTLHLLLQQFPRFINHRGENGRAPIHIACMNDYYQCLSLLIGVGADLWVMDTNGDTPLHVCLEYGSISCMKMLLNEGEVSLDDNVRDKGNWKPIDVAQTFEVGNIYSKVLKEVKKKGPPLGAGKKPSSFRTPILNAKATFEDGPSPVLSMNSPYSLYSNNSPLPVLPRRISTHTTSGNGGNRRSSITNPVFNPRKPTLSTDSFSSSSNSSSRLRVNSINVKTPVGVSPKKELVSESVRHSATPTSPHNNIALINRYLLPNKSNDNVRGDSQTATINDDGGGGNGGDATIGMGLRKDPDDENENKYKIKVNNGEPRRRVSLLNIPISKLRNSNNTRAED | binds |
